Reference: publication PMC11730744
These are yes or no findings as the source states them, for the method shown. In cells and extracts the contact can be indirect. Some results given as binding are weak or reduced against the parent protein; the word gives no strength.

By UniProt entry, the sequences of proteins in these tests, tags left out. Residues count along the entry.
UniProt Q96D31: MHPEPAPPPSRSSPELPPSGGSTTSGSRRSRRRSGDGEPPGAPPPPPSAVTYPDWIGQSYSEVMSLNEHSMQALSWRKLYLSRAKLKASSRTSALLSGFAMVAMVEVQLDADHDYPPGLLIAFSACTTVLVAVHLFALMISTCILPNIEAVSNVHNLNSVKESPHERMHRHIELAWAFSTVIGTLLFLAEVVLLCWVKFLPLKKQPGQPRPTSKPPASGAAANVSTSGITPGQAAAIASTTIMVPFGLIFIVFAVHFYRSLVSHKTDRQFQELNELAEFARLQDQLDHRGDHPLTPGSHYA
UniProt Q9P246, residues 15-746: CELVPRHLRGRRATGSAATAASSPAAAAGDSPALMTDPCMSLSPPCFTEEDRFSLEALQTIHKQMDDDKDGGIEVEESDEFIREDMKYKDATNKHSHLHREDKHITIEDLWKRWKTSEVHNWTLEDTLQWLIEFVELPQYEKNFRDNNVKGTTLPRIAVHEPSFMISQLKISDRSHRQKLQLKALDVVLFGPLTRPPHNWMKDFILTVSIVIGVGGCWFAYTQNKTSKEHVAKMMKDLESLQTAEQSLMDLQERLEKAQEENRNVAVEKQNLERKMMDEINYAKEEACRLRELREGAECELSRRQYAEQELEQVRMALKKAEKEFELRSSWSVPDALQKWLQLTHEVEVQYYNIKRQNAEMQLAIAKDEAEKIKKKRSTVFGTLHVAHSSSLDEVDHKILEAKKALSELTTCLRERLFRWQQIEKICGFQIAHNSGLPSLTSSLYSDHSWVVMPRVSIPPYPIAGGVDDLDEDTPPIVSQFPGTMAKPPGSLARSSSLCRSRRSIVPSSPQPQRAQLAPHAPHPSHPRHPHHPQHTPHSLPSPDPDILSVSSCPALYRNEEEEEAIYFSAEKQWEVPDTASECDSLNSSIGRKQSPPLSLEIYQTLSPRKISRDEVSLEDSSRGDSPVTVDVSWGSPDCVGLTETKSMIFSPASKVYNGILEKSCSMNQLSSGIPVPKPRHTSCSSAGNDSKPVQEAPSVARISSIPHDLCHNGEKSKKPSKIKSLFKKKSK

Target: Orai1α-eGFP (UniProt Q96D31)
Test: co-IP; NP-40 lysates (pH 8) of STIM1/2 DKO HEK-293 cells cotransfected with Orai1 variant-eGFP and STIM1-YFP, STIM2-YFP or both; IP with anti-Orai1 antibody and protein A-agarose overnight at 4°C; blots with anti-STIM1 and anti-STIM2; cells resting or treated with 2 µM TG for 1 min in 1.8 mM extracellular Ca2+

With STIM2-YFP (from UniProt Q9P246 15-746) the binding was “binds”.
